At least one compound was matched to its structure with a doubt left.
Tested on: NZB/NZW F1 (B/W) mice
Assay: Anti-nDNA antibody isotypes (IgG1, IgG2a) measured by ELISA after therapeutic dosing
Type: in vivo

CO[C@H]1C[C@@H]2CC[C@@H](C)[C@@](O)(O2)C(=O)C(=O)N2CCCC[C@H]2C(=O)O[C@H]([C@H](C)C[C@@H]2CC[C@@H](O)[C@H](OC)C2)CC(=O)[C@H](C)/C=C(\C)[C@@H](O)[C@@H](OC)C(=O)[C@H](C)C[C@H](C)/C=C/C=C/C=C/1C [Rapamycin]
production of anti-nDNA antibodies (54-week old mice, ELISA, FIGS. 5A and 5B): decreased production of anti-nDNA antibodies | inhibition of the anti-nDNA antibody response, delayed versus early dosing (delayed (late, from week 33) dosing compared with early (from week 25) dosing): did not appear to inhibit the antibody response as well as the early dosing regimen

Reference: patent publication US20010055593A1, “Use of rapamycin and agents that inhibit B7 activity in immunomodulation” (priority 2000, published 2001)
